SMILES strings stand for the structures. The list is a part of this screen's results and no random one: it covers a few groups of compounds. Not every dose and run of a compound is shown. T/C gives the treated animals as a percentage of the vehicle group. For survival time, the PubChem record calls one and a half times the control and up active, and a quarter to a half above the control has no call in these data; cut-offs in other NCI protocols can differ. Some T/C values are marked as having no survivor count here; that says nothing about deaths at the dose. Schedule codes are those of the source, taken here to give the interval after Q, in days (D) or hours (H), and the number of doses after X.

This assay concerns DBA/2 mice, P1534 leukemia ip, survival T/C. Description: NCI In Vivo Anticancer Drug Screen. Data for tumor model P1534 Leukemia (intraperitoneal) in DBA/2 mice. The following applies: T/C endpoint: mean survival time, schedule: Q01DX010 (ip), vehicle: saline, higher T/C = longer survival. The procedure: The antitumor activity of compounds was measured in mice bearing transplantable tumors. Survival or tumor size were measured and the results are expressed as the measurement made in the treated group (T) divided by the measurement made in the vehicle treated control group (C). The tumor model used in this assay is P1534 Leukemia (intraperitoneal) in DBA/2 mice

On to `CN(CCCl)CCCl`, for which the T/C by setting is: (dose: 31.3 micrograms/kg/injection) 100 % of control [survivor count not shown]; (dose: 62.5 micrograms/kg/injection) 91 % of control [survivor count not shown]; (dose: 125.0 micrograms/kg/injection) 108 % of control [survivor count not shown]; (dose: 250.0 micrograms/kg/injection) 125 % of control [survivor count not shown].

The record behind these values is PubChem BioAssay AID314 (DTP/NCI, 2004).
